{"source": "paper PMC11603770", "about": "“Validating anti-inflammatory and cytotoxic properties of Fagonia cretica L. through metabolic, in vitro, and in silico profiling” (BMC Complementary Medicine and Therapies, 2024)", "key": {"[1]": {"tested_on": "MCF-7 cells (breast carcinoma cell line)", "test": "MTT viability assay, MCF-7", "format": "cell-based", "details": "Homo sapiens, MCF7, 24 h", "method": "(§1) The Cytotoxic activity was tested using the viability assay following the method reported by Mosmann, T., 1983 [21, 22]. HepG2 cells (liver carcinoma cell line), MCF-7cells (breast carcinoma cell line) and CACO2 cells (intestinal carcinoma cell line) (American Type Culture Collection ATCC, Rockville, MD) were applied through the tissue Culture Unit, the Egyptian Organization for Biological Products and Vaccines, Vacsera, Egypt. In brief, the tumor cell lines were suspended in medium at concentration 5 × 10^4 cell/ well in Corning® 96-well tissue culture plates and then incubated for 24 h. The alcoholic extract of F. cretica was then added into 96-well plates (three replicates) to achieve twelve concentrations. Six vehicle controls with media or 0.5% DMSO were run for each 96 well plate as a control. After incubating for 24 h, the number of viable cells was determined by the MTT test. Briefly, the media was removed from the 96 well plates and replaced with 100 µl of fresh culture RPMI 1640 medium without phenol red then 10 µl of the 12 mM MTT stock solution (5 mg of MTT in 1 ml of PBS) to each well including the untreated controls. […] Then, the optical density (OD) was measured at 590 nm with the microplate reader (SunRise, TECAN, Inc, USA) to determine the number of viable cells and the percentage of viability was calculated as follows: […]"}, "[2]": {"tested_on": "HepG2 cells (liver carcinoma cell line)", "test": "MTT viability assay, HepG2", "format": "cell-based", "details": "Homo sapiens, 24 h", "method": "as §1"}}}
{"smiles": "COc1cccc2c1C(=O)c1c(O)c3c(c(O)c1C2=O)C[C@@](O)(C(=O)CO)C[C@@H]3O[C@H]1C[C@H](N)[C@H](O)[C@H](C)O1", "note": "[Doxorubicin]", "values": [{"measurement": "IC50", "setting": "[1]", "result": "9.15 ± 0.5", "unit": "µg/mL"}, {"measurement": "IC50", "setting": "[2]", "result": "6.28 ± 0.4", "unit": "µg/mL"}]}
